# Measurements: PMC10167121, “Completing the TRB family: newly characterized members show ancient evolutionary origins and distinct localization, yet similar interactions”
# The exact form of at least one protein or probe is not confirmed. At least one verdict rests on a figure or table, not on a statement of the authors. Protein sequences can lack the tags named with them.
# Biological target: T1, TRB1 (UniProt Q8VWK4)
# T1 sequence (looked up, limits assumed): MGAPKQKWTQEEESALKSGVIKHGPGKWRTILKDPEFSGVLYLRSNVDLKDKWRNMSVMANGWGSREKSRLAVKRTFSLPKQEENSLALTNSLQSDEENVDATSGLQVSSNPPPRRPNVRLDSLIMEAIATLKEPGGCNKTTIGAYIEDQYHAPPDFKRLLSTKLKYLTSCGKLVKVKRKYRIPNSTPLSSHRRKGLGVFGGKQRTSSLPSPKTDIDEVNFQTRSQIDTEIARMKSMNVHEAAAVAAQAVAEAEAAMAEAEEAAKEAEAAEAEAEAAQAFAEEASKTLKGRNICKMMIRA
# Test: EMSA
# Settings: non-telomeric competitor 1-100x; 10 mM Tris-HCl pH 8.0, 1 mM EDTA, 1 mM DTT, 50 mM NaCl, 5% glycerol; 10 pmol protein, 1 pmol probe, on ice 20 min; 7.5% PAGE, 0.5x TBE, 15 C; recombinant protein; protein details: His-tag (pHGWA); label: 32P 5'-end
sequence,measurement,value
TTTTTCACGAAAACCCTAATCGCAGTCG (double strand) [telo-box],binding result,binds
